These are yes or no findings as the source states them, for the method shown. Some entries that bind do so weakly or less than the wild type. Where a sequence is shown, tags or fusion partners need not be part of it.
Molecular target: T1, purified recombinant LGR5 ectodomain-IgG-Fc fusion (human) (UniProt O75473)
T1 sequence: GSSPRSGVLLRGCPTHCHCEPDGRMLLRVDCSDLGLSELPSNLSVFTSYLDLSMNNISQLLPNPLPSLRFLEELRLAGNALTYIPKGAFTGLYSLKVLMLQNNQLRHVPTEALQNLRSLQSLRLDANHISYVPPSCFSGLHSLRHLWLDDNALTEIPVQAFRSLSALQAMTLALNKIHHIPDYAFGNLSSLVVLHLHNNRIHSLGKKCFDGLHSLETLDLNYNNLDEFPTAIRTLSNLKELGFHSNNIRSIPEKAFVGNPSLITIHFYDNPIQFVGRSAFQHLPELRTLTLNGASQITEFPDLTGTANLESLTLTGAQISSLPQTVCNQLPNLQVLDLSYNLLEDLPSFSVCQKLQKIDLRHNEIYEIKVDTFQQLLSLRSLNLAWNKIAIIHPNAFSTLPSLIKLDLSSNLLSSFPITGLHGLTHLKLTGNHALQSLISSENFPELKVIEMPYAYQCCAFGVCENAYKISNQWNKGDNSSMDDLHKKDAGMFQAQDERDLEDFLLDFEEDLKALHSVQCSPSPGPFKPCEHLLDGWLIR
Experiment: ELISA of the ternary complex: Norrin preincubated with LGR5-Fc, co-receptor-Fc coated

Sequences of proteins named here, by UniProt entry; tags and fusion partners are left off. Residues count along the entry.
UniProt Q00604, residues 25-133: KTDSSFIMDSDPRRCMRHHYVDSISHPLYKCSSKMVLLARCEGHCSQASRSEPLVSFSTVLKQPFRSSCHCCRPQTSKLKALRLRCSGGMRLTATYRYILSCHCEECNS

Substance: Norrin (from UniProt Q00604 25-133) (ligand)
- binding: binds

— patent publication US20190100600A1
